# In the supplement of paper PMC3334620:
# Whole data set: some 33,000 sequences, median “E-score (-0.5 to 0.5)” near -0.0034, cut for the highest 2% near 0.25. The list shows a part of the results.
# Biological target: T1, Yap3 (UniProt P38749)
# T1 sequence: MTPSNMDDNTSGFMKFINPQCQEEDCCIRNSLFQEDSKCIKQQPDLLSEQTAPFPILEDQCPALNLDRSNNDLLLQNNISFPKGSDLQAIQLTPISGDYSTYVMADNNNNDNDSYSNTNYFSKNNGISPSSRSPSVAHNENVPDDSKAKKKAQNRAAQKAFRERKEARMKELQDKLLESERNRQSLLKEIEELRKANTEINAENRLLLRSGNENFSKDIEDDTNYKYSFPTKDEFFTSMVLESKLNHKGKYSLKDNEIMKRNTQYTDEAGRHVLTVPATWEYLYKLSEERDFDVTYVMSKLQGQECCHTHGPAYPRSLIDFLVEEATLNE
# Experiment: PBM E-score (8-mer binding enrichment) (E-score (-0.5 to 0.5)); higher = stronger / more preferred TF binding
# Details: protein concentration: 100 nM; construct: GST-full length
# Summary of the method: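 Each ungapped eight-base word and its reverse complement, pooled, received an E-score from the Universal PBM Analysis Suite. Underlying scans, normalised with masliner, recorded fluorescent anti-GST bound to GST-tagged yeast transcription factors. These were applied at about 100-200 nM to universal all-10-mer Agilent arrays double-stranded by primer extension.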
row,Sequence,PBM E-score
1,CATGGACC,-0.093
2,ACAGTTGA,0.113
3,ACTGCGCA,0.0469
4,AATTACTG,0.218
5,AGGTAAAG,0.224
6,ATCAGTAG,0.0393
7,ATCCGACC,-0.021
8,AGTTTATA,0.205
9,CCCATAAC,0.0193
10,AGGTCTGC,-0.226
11,AACGTATC,-0.00988
12,CCGGTACC,-0.0802
13,ATAGAAAC,0.174
14,AACTGGAG,-0.188
15,GTTTAAAC,0.126
16,ACAGGACG,-0.0578
17,GTAAGGAC,-0.0757
18,AAGAGCTT,-0.0936
19,GTAACGGA,0.0825
20,ACAGGAGC,0.151
21,AACCTCTA,0.0344
22,CTGTTTTC,-0.0508
23,ATAATGAC,0.0171
24,AGGTTGAG,-0.294
25,TGTCCGAA,0.161

row,Sequence,PBM E-score
1,AACTTCGC,-0.0832
2,CTGCGCCA,-0.0367
3,CTTACTCA,0.164
4,AGTAGAGC,-0.0281
5,AGCTCAAT,0.0583
6,GTGCGGTA,-0.0885
7,CCAGCAGG,-0.337
8,CCCAGGAC,-0.304
9,GATTCCAA,0.00949
10,ATACTATC,0.113
11,GCGTGCCA,-0.122
12,TATGACCA,0.112
13,CGTGTAAG,-0.0107
14,AGTAGACG,0.102
15,ACGCTATC,0.109
16,AATACTAC,0.202
17,CCTCCGTC,-0.25
18,GAAGTGTA,-0.11
19,ACGGTCAT,0.0848
20,CGGGAAAG,-0.113
21,ACATGTAC,0.112
22,CGCATTTC,0.146
23,CTTCTGTC,0.0152
24,CTCTGACC,-0.31
25,AAACTAAA,0.261

row,Sequence,PBM E-score
1,ACAGCTAC,-0.0945
2,GAAGAAAC,0.16
3,CTAATGTA,0.148
4,GGCTAACC,-0.132
5,GCTCGTCA,-0.23
6,CCGGAAAG,-0.139
7,CATCGCTA,0.0613
8,TGTAAACA,0.0376
9,ATAACGCA,0.189
10,TAACCACA,0.155
11,GTAGGTAA,0.0294
12,GAGCCCGC,-0.239
13,ATCGCATC,-0.0542
14,AGAGTGGC,-0.0629
15,GGCTCCAA,-0.0684
16,GATGAAGA,-0.0381
17,CAGTCGAC,0.157
18,ATAGACCC,0.0393
19,AGTCTGTA,-0.176
20,ACGGATGC,-0.00022
21,TGGATCAA,-0.0373
22,GCATACCA,0.0125
23,ACCCCCGA,-0.164
24,ACCCATGA,-0.0383
25,GGGAACTA,-0.0139

# Exported with bars between the fields: entries from further up
row | Sequence | PBM E-score
2 | ACAGTTGA | 0.113
5 | AGGTAAAG | 0.224
6 | ATCAGTAG | 0.0393
9 | CCCATAAC | 0.0193
10 | AGGTCTGC | -0.226
11 | AACGTATC | -0.00988
12 | CCGGTACC | -0.0802
13 | ATAGAAAC | 0.174
16 | ACAGGACG | -0.0578
22 | CTGTTTTC | -0.0508
23 | ATAATGAC | 0.0171
24 | AGGTTGAG | -0.294
25 | TGTCCGAA | 0.161
5 | AGCTCAAT | 0.0583
6 | GTGCGGTA | -0.0885
7 | CCAGCAGG | -0.337
8 | CCCAGGAC | -0.304
11 | GCGTGCCA | -0.122
12 | TATGACCA | 0.112
13 | CGTGTAAG | -0.0107
15 | ACGCTATC | 0.109
16 | AATACTAC | 0.202
23 | CTTCTGTC | 0.0152
25 | AAACTAAA | 0.261
1 | ACAGCTAC | -0.0945
2 | GAAGAAAC | 0.16
7 | CATCGCTA | 0.0613
8 | TGTAAACA | 0.0376
9 | ATAACGCA | 0.189
15 | GGCTCCAA | -0.0684
16 | GATGAAGA | -0.0381
18 | ATAGACCC | 0.0393
21 | TGGATCAA | -0.0373
22 | GCATACCA | 0.0125
23 | ACCCCCGA | -0.164
24 | ACCCATGA | -0.0383

# (listing goes on)

row,Sequence,PBM E-score
1,GGACGTAA,-0.0155
2,CACGGAGC,-0.056
3,CCAAATCA,0.0273
4,CATACCCC,-0.00337
5,ACCGCGAA,-0.00285
6,GCGACGTA,0.0143
7,GTTATCAA,0.0563
8,CTTACTGC,0.0596
9,CCAATAAC,0.142
10,ACGGAACA,0.0638
11,CAAGCTTC,-0.0571
12,ACCGGCTG,-0.285
13,AATAGCTC,-0.0298
14,ATCGATCG,0.15
15,ATGATGGA,0.0917
16,CGACACGC,0.0316
17,AACGTGAA,0.0806
18,GCCCCTCA,-0.318
19,GGTCATAC,-0.0137
20,CTTATGGA,-0.0182
21,ATCAGCGA,0.0403
22,GCAATATA,0.216
23,CTAGACCC,-0.151
24,ATTTCCGA,0.209
25,TGTTTCAA,0.218

row,Sequence,PBM E-score
1,AAGTCTGC,-0.107
2,AAAGCGCG,-0.00205
3,CTGGAGTA,-0.0124
4,CTGTGCGA,0.0309
5,AAACAGCA,0.163
6,AACAAAGA,0.174
7,CTAATCCC,0.0684
8,CAGGCTGG,-0.188
9,ATCCCGGC,-0.0697
10,CTATCGGA,-0.138
11,AAGCACAC,-0.0786
12,ACTAATAA,0.303
13,CGCGTACG,0.152
14,AGTTCTGC,-0.00524
15,AAACCTCC,-0.116
16,AGACCTTG,-0.0663
17,CGATCTAG,-0.155
18,ACTCCGAT,-0.0336
19,ATGGGCTC,-0.188
20,CGCCCATC,-0.181
21,GCTACGGA,-0.122
22,CAACACGC,0.064
23,CGTGAGTC,-0.117
24,ACGCCTAA,0.0456
25,ACCCCCAA,-0.183

row,Sequence,PBM E-score
1,AGACTTCG,-0.00102
2,GGTGTGAC,-0.227
3,CAACACTC,0.112
4,CACATAAA,0.17
5,ATTGATAC,0.224
6,TAGTCAGA,0.0338
7,CGCCCATA,-0.0229
8,GCCGTGTA,0.0141
9,ACGTCATC,0.152
10,GCCGACCC,-0.33
11,ACTGTTGC,0.104
12,GAGTCAAA,-0.177
13,AGCTAAGA,0.00844
14,CCATGGGC,-0.197
15,CATTCTCG,0.0585
16,TAGTTAAA,0.158
17,GGCGGTCA,-0.251
18,CATGATCC,-0.0797
19,GCGCCGAA,0.0489
20,ACCCAGCC,-0.18
21,CAGAGCCC,-0.115
22,CCGTGGGA,-0.337
23,AAAGCCGA,-0.0302
24,CCTACCTA,-0.143
25,AGTCCGTG,-0.28

row,Sequence,PBM E-score
1,CCTTGACC,-0.0811
2,GGCGAGAA,0.2
3,CTGAACTA,-0.101
4,CGTCGTAG,-0.0554
5,CGAGCGAA,-0.101
6,GTCGAGAC,0.0574
7,TTGCCCAA,-0.00787
8,AATTGCAG,0.0709
9,CGTATGTA,0.108
10,TACTCACA,0.115
11,ACGGCACG,-0.0633
12,GAGGGTCC,-0.276
13,AACTCATG,0.116
14,CGCTCAGC,-0.121
15,GAAATGTA,0.16
16,CGTCTGCA,0.00032
17,CGAGTGAA,-0.0772
18,AAAAAGTT,0.0968
19,GGACATCA,0.0696
20,TGAATTCA,0.232
21,AGATGTTA,0.077
22,CCACGTCA,0.0656
